pIC50: −log10 of the molar value. Some results were stated once for a whole list of compounds, not compound by compound.
Key:
Assay type in all cases: biochemical
[1] = biological target: Tie-2 kinase enzyme (Homo sapiens, UniProt Q02763); assay: Tie-2 Homogenous Time Resolved Fluorescent (HTRF) kinase assay; conditions: read-out: IC50's for the inhibition of Tie-2 as measured by the HTRF assay
[2] = biological target: T1, AuroraB FL His (Homo sapiens, UniProt Q96GD4); assay: AuroraB Homogeneous Time Resolved Fluorescent (HTRF) kinase assay; conditions: read-out: activity in the Aurora kinase B HTRF assay
T1 construct: AuroraB FL His; His

The chains behind the UniProt entries cited, without tags or fusion partners. Residues count along the entry.
UniProt Q02763, 23-1124: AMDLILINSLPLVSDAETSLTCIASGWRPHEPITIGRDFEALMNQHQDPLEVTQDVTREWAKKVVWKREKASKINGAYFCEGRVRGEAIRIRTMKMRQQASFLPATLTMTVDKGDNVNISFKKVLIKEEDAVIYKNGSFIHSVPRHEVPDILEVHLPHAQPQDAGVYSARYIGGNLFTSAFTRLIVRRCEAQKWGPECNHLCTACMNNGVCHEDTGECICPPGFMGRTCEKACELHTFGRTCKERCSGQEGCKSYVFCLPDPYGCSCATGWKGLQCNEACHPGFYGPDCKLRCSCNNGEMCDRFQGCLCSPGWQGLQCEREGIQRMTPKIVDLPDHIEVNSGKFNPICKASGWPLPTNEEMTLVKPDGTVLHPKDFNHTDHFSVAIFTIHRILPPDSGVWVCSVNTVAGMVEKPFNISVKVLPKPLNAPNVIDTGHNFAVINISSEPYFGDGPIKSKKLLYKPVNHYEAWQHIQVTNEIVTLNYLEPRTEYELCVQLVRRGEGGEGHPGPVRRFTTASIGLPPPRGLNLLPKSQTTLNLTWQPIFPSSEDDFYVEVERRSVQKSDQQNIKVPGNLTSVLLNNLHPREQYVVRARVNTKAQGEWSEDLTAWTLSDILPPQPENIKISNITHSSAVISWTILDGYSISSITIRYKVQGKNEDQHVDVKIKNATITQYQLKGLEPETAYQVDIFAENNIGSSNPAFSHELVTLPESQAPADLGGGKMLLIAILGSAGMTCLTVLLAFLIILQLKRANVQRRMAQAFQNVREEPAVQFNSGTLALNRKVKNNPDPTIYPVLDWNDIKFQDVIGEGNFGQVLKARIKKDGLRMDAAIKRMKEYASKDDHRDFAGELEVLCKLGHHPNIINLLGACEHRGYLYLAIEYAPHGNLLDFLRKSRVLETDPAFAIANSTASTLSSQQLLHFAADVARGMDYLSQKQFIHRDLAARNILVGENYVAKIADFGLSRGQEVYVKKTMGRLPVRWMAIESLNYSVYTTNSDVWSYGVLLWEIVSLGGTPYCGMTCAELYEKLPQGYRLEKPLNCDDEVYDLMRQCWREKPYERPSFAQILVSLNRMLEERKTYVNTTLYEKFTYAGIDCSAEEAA
UniProt Q96GD4, whole entry: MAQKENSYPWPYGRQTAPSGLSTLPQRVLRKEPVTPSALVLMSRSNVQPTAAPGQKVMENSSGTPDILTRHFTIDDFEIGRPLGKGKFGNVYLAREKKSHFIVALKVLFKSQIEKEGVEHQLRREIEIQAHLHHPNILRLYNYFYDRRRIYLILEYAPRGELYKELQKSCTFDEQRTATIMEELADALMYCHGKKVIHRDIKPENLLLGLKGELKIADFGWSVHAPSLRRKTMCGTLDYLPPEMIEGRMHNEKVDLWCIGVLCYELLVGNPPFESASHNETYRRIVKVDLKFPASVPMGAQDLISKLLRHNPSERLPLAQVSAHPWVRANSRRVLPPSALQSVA

[3] = biological target: T2, AuroraA-TPX2 KD GST (Homo sapiens, UniProt O14965); assay: AuroraA-TPX2 Homogeneous Time Resolved Fluorescent (HTRF) kinase assay; conditions: read-out: activity in the Aurora kinase A HTRF assay
T2 construct: AuroraA-TPX2 KD GST; GST
T2 sequence (O14965 133-383 limits assumed): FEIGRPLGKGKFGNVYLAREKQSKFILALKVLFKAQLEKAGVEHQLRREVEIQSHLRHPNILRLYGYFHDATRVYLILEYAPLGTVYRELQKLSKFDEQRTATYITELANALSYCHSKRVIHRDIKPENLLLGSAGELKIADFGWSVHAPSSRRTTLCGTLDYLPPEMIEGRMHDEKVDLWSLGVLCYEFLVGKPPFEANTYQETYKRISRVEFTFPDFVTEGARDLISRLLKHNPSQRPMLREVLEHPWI
T2 sequence (Q9ULW0 1-43 partner limits assumed): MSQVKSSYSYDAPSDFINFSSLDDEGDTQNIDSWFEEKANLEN

| SMILES | pIC50 [1] | pIC50 [2] | pIC50 [3] |
| --- | --- | --- | --- |
| CNc1nccc(-c2cccnc2Oc2ccc(NC(=O)[C@@H](NC(=O)OC(C)(C)C)c3ccccc3)cc2C)n1 (racemic) [Example 1016, 1,1-dimethylethyl 2-((3-methyl-4-((3-(2-(methylamino)-4-pyrimidinyl)-2-pyridinyl)oxy)phenyl)amino)-2-oxo-1-phenylethylcarbamate] | > 5.30 | > 5.00 | > 5.00 |
| Cc1ccc(NC(=O)c2cccc(C(F)(F)F)c2)c(C)c1Nc1ncccc1-c1ccncn1 [Example 223, N-(3,4-dimethyl-3-(3-(pyrimidin-4-yl)pyridin-2-ylamino)phenyl)-3-(trifluoromethyl)benzamide] | > 5.30 | > 5.00 | > 5.00 |
| CNc1nccc(-c2cccnc2Oc2cc(C(=O)Nc3cccc(OCc4ccccc4)c3)ccc2C)n1 [Example 282, 4-methyl-3-((3-(2-(methylamino)-4-pyrimidinyl)-2-pyridinyl)oxy)-N-(3-((phenylmethyl)oxy)phenyl)benzamide] | > 5.30 | > 5.00 | > 5.00 |
| CNc1nccc(-c2cccnc2Oc2cccc(C(=O)Nc3cccc(C(F)(F)F)c3)c2)n1 [Example 299, 3-((3-(2-(methylamino)-4-pyrimidinyl)-2-pyridinyl)oxy)-N-(3-(trifluoromethyl)phenyl) benzamide] | > 5.30 | > 5.00 | > 5.00 |
| CNc1nccc(-c2cccnc2Oc2cccc(C(=O)Nc3cc(OC[C@@H]4CCCN4C)cc(C(F)(F)F)c3)c2)n1 [Example 302, 3-((3-(2-(methylamino)-4-pyrimidinyl)-2-pyridinyl)oxy)-N-(3-((((2S)-1-methyl-2-pyrrolidinyl)methyl)oxy)-5-(trifluoromethyl)phenyl) benzamide] | > 5.30 | > 5.00 | > 5.00 |
| CNc1nccc(-c2cccnc2Oc2cc(C(=O)Nc3cc(C(F)(F)F)ccc3N3CCN(C)CC3)ccc2C)n1 [Example 339, 4-methyl-3-((3-(2-(methylamino)-4-pyrimidinyl)-2-pyridinyl)oxy)-N-(2-(4-methyl-1-piperazinyl)-5-(trifluoromethyl)phenyl) benzamide] | > 5.30 | > 5.00 | > 5.00 |
| CNc1nccc(-c2cccnc2Oc2ccc(NC(=O)Nc3ccc(CCN4CCN(C)C(C)C4)cc3)cc2)n1 (stereo not shown) [Example 1039, N-(4-(2-(3,4-dimethyl-1-piperazinyl)ethyl)phenyl)-N′-(4-((3-(2-(methylamino)-4-pyrimidinyl)-2-pyridinyl)oxy)phenyl)urea] | – | > 5.00 | > 5.00 |
| CNc1nccc(-c2cccnc2Oc2ccc(NC(=O)NC(C)(C)C)cc2C)n1 [Example 1077, N-(1,1-dimethylethyl)-N′-(3-methyl-4-((3-(2-(methylamino)-4-pyrimidinyl)-2-pyridinyl)oxy)phenyl)urea] | – | > 5.00 | > 5.00 |
| CNc1nccc(-c2cccnc2Oc2ccc(NC(=O)NCc3ccccc3)cc2)n1 [Example 1087, N-(4-((3-(2-(methylamino)-4-pyrimidinyl)-2-pyridinyl)oxy)phenyl)-N′-(phenylmethyl)urea] | – | > 5.00 | > 5.00 |
| CNc1nccc(-c2cccnc2Oc2ccc(NC(=O)NCc3ccccc3)c(C)c2)n1 [Example 1088, N-(2-methyl-4-((3-(2-(methylamino)-4-pyrimidinyl)-2-pyridinyl)oxy)phenyl)-N′-(phenylmethyl)urea] | – | > 5.00 | > 5.00 |
| CNc1nccc(-c2cccnc2Oc2ccc(NC(=O)NCc3ccccc3)c(C)c2C)n1 [Example 1089, N-(2,3-dimethyl-4-((3-(2-(methylamino)-4-pyrimidinyl)-2-pyridinyl)oxy)phenyl)-N′-(phenylmethyl)urea] | – | > 5.00 | > 5.00 |
| CNc1nccc(-c2cccnc2Oc2ccc(NC(=O)NCc3ccccc3C)cc2)n1 [Example 1093, N-(4-((3-(2-(methylamino)-4-pyrimidinyl)-2-pyridinyl)oxy)phenyl)-N′-((2-methylphenyl)methyl)urea] | – | > 5.00 | > 5.00 |
| CNc1nccc(-c2cccnc2Oc2ccc(NC(=O)NCc3ccc(C)cc3)cc2)n1 [Example 1094, N-(4-((3-(2-(methylamino)-4-pyrimidinyl)-2-pyridinyl)oxy)phenyl)-N′-((4-methylphenyl)methyl)urea] | – | > 5.00 | > 5.00 |
| Cc1ccc(NC(=O)Nc2ccc(Oc3ncccc3-c3ccnc4ccccc34)cc2)cc1F [Example 1121, N-(3-fluoro-4-methylphenyl)-N′-(4-((3-(4-quinolinyl)-2-pyridinyl)oxy)phenyl)urea] | – | > 5.00 | > 5.00 |
| O=C(Nc1ccc(Cl)cc1)Nc1ccc(Oc2ncccc2-c2ccnc3ccccc23)cc1 [Example 1122, N-(4-chlorophenyl)-N′-(4-((3-(4-quinolinyl)-2-pyridinyl)oxy)phenyl)urea] | – | > 5.00 | > 5.00 |
| COc1cc2nccc(-c3cccnc3Oc3ccc(NC(=O)Nc4ccc(C)c(F)c4)cc3)c2cc1OC [Example 1123, 1-(4-(3-(6,7-dimethoxyquinolin-4-yl)pyridin-2-yloxy)phenyl)-3-(3-fluoro-4-methylphenyl)urea] | – | > 5.00 | > 5.00 |
| COc1cc2nccc(-c3cccnc3Oc3ccc(NC(=O)Nc4ccc(Cl)cc4)cc3)c2cc1OC [Example 1124, 1-(4-chlorophenyl)-3-(4-(3-(6,7-dimethoxyquinolin-4-yl)pyridin-2-yloxy)phenyl)urea] | – | > 5.00 | > 5.00 |
| CC(C)(C)NC(=O)Nc1ccc(Oc2ncccc2-c2ccnc3[nH]ccc23)cc1 [Example 1125, 1-(4-(3-(1H-pyrrolo[2,3-b]pyridin-4-yl)pyridin-2-yloxy)phenyl)-3-tert-butylurea] | – | > 5.00 | > 5.00 |
| O=C(Nc1ccc(Oc2ncccc2-c2ccnc3[nH]ccc23)cc1)c1ccccc1 [Example 1129, N-(4-(3-(1H-pyrrolo[2,3-b]pyridin-4-yl)pyridin-2-yloxy)phenyl)benzamide] | – | > 5.00 | > 5.00 |
| O=C(Nc1ccc(Oc2ncccc2-c2ccnc3[nH]ccc23)cc1)c1cccc(C(F)(F)F)c1 [Example 1130, N-(4-(3-(1H-pyrrolo[2,3-b]pyridin-4-yl)pyridin-2-yloxy)phenyl)-3-(trifluoromethyl)benzamide] | – | > 5.00 | > 5.00 |
| Cc1cc(NC(=O)c2cccc(C(F)(F)F)c2)ccc1Oc1ncccc1-c1ccnc2[nH]ccc12 [Example 1166, N-(4-(3-(1H-pyr-rolo[2,3-b]pyridin-4-yl)pyridin-2-yloxy)-3-methyl-phenyl)-3-(trifluoromethyl) benzamide] | – | > 5.00 | > 5.00 |
| CNc1nccc(-c2cccnc2Oc2ccc(NC(=O)c3cccc(N)c3)cc2)n1 [Example 1172, 3-amino-N-(4-((3-(2-(methylamino)-4-pyrimidinyl)-2-pyridinyl)oxy)phenyl)benz-amide] | – | > 5.00 | > 5.00 |
| CNc1nccc(-c2cccnc2Oc2ccc(NC(=O)c3ccc(N4CCN(C)CC4)c(C(F)(F)F)c3)cc2C)n1 [Example 1188, N-(3-methyl-4-((3-(2-(methylamino)-4-pyrimidinyl)-2-pyridinyl)oxy)phenyl)-4-(4-methyl-1-piperazinyl)-3-(trifluoromethyl)benzamide] | – | > 5.00 | > 5.00 |
